According to publication PMC6541629:
Results are given in words; binding and its absence hold for the method and conditions named. In cells and extracts the contact can be indirect. A result given as binding can be weak or reduced; the word gives no strength.

Chains of the proteins cited; added tags and fusions are not shown. Lines headed by an entry give the natural chain unless they say otherwise; changes in a name come on top.
UniProt P27090: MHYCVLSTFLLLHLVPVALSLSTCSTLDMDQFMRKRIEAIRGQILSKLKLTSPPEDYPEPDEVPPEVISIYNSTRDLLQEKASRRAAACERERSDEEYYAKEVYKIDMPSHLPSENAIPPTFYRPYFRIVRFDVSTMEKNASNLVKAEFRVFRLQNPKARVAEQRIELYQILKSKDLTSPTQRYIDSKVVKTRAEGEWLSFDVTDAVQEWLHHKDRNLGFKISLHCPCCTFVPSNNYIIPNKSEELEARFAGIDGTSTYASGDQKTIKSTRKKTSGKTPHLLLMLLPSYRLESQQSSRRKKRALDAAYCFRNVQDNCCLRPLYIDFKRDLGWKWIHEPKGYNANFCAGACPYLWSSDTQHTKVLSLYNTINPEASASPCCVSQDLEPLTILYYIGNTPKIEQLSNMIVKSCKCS

Columns and labels:
[1] = target: T1, fibromodulin (Fmod) (mouse (endogenous in peritoneal macrophages)) (UniProt P50608); assay: co-IP; anti-Fmod antibody (100 µg) coupled to Dynabeads (5 mg); lysates of thioglycollate-elicited peritoneal macrophages from Notch1+/- mice; washed three times with PBS; Western blot for TGF-β2, Fmod and NICD
T1 sequence: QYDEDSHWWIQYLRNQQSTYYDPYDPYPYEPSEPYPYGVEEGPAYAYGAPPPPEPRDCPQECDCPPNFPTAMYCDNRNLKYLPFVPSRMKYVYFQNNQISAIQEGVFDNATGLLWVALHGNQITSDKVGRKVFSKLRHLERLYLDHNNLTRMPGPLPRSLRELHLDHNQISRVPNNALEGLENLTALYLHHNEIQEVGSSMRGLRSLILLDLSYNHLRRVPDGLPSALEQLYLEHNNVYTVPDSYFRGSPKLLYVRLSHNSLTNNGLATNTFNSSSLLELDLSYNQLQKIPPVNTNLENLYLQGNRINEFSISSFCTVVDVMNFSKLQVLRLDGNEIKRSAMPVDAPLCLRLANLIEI

[2] = target: T1, fibromodulin (Fmod) (mouse (endogenous in peritoneal macrophages)); assay: co-IP; anti-Fmod antibody (100 µg) coupled to Dynabeads (5 mg); lysates of thioglycollate-elicited peritoneal macrophages from WT mice; washed three times with PBS; Western blot for TGF-β2, Fmod and NICD

binding [1]: binds
binding [2]: binds weakly
Substance: transforming growth factor beta 2 (Tgf-β2) (from UniProt P27090)
